Test results taken from PubChem BioAssay AID485314 (National Center for Advancing Translational Sciences (NCATS), 2010).
Among all 340,000 compounds or so, about 4,500 (1.3%) were called active. This list was built around the results that the source calls inconclusive (neither active nor inactive); the mix of calls is not that of the screen. Calls follow the shape of the dose curve; as a rule, active = well fitted inhibition curve with a large enough effect; inconclusive = small, poorly fitted or top-dose-only effect, or another doubt; inactive = no such curve, though single readings can be large or run the other way. A potency beside an inconclusive call is a rough fit, not a confirmed value.

What follows are compounds tested against DNA polymerase beta (Homo sapiens) (UniProt P06746) (assay: qHTS Assay for Inhibitors of DNA Polymerase Beta). Conditions: Pol beta primer extension/strand displacement, fluorescence kinetic; activity change, negative = inhibition: at 114 µM (top of the series).
Procedure, shortened: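 Pol beta (10 nM) was preincubated with compound for 15 min at room temperature. The reaction was then started with 50 nM substrate and read immediately and after a further 10 min at room temperature.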
% is scaled to controls: 0 for no effect and ±100 for the full control effect; potency is read from the fitted curve at half-maximal effect.

Potency, active:
C(=C\c1ccco1)/c1ccc2ccccc2n1 10 µM
CN1C(=O)c2ccccc2NC(=O)[C@]12O[C@@H]2c1cccc(O)c1 44.7 µM
O=C1Nc2ccccc2SC(c2ccccc2)C1O (configuration not stated) 22.4 µM
Cc1nnc(SCC2=C(C(=O)O)N3C(=O)C(NC(=O)Cn4ncc(Cl)c4C)C3SC2)s1 (configuration not stated) 31.6 µM
Cc1c(Cl)cnn1CC(=O)NC1C(=O)N2C(C(=O)O)=C(CSc3nnnn3C)CSC12 (configuration not stated) 20 µM

Potency, inactive:
CCc1ccc(-n2c(=O)c3ccccc3n(CC(=O)NCCc3ccc(OC)c(OC)c3)c2=O)cc1
COc1ccc(Cl)cc1NC(=O)NCCn1c(=O)oc2ccc(C)cc21
O=C(NC(=S)Nc1ccc2c(c1)OCCO2)c1cccc(Br)c1
COc1ccc(NC(=O)Nc2ccc(OC)c(OC)c2)c([N+](=O)[O-])c1
CCOc1cccc2sc(N3CCN(C(=O)c4ccc5c(c4)CCCC5)CC3)nc12
CN(Cc1ccccc1)c1nnc(NC(=O)Nc2cccc(Br)c2)s1
COc1cc(/C=C2\C(=O)ON=C2c2ccccc2)cc(Cl)c1O
Cc1ccc(S(=O)(=O)N2CC=C(c3c(C)n(C)c4ccccc34)CC2)cc1

Potency, inconclusive:
C=CC(COCc1ccccc1)N(Cc1ccc(OC)cc1)S(=O)(=O)c1ccccc1Br (configuration not stated) 3.98 µM [inhibitor, single point]
CC(=O)c1ccc(NC(=O)C2CCN(S(=O)(=O)c3cccc4nonc34)CC2)cc1 39.8 µM [inhibitor, single point]
CCS(=O)(=O)N1CCN(c2ccc([N+](=O)[O-])c(NCc3cccnc3)c2)CC1 50.1 µM [inhibitor, single point]
Cc1ccc(N=Nc2c(C)[nH]n(-c3ccccc3)c2=O)cc1Br 5.62 µM [inhibitor, full curve]
CC(=O)OC1CCC(OC(C)=O)c2c1n([O-])c(C)c(C)[n+]2=O (configuration not stated) 39.8 µM [inhibitor, partial curve]
CCCCNc1nc(-c2ccccc2)nc(-n2ccnc2)n1 89.1 µM [inhibitor, single point]
CCN(CC)S(=O)(=O)c1ccc(NC(=O)c2cc3ccc4cccnc4c3[nH]2)cc1 15.8 µM [inhibitor, full curve]
CC1(C)C(=O)Nc2ccccc2N1C(=O)COC(=O)COc1ccc(C#N)cc1 0.316 µM [inhibitor, full curve, poor fit]

A portion from further up, as a working copy:
Potency, inconclusive:
CC(=O)c1ccc(NC(=O)C2CCN(S(=O)(=O)c3cccc4nonc34)CC2)cc1 39.8 µM [inhibitor, single point]
CCS(=O)(=O)N1CCN(c2ccc([N+](=O)[O-])c(NCc3cccnc3)c2)CC1 50.1 µM [inhibitor, single point]

Following part:

Activity change, negative = inhibition, inconclusive:
COc1ccc(Cl)cc1NC(=O)NN1CCN(C)CC1 -112% [inhibitor]
